# The list shows a part of the results. The data scatter; read single values as rough.
# Chains of the proteins cited; added tags and fusions are not shown. Lines headed by an entry give the natural chain unless they say otherwise; changes in a name come on top. Residues count along the entry.
# UniProt Q9ULT8, 1785-1816: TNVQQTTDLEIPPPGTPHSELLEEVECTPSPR
# UniProt P35914: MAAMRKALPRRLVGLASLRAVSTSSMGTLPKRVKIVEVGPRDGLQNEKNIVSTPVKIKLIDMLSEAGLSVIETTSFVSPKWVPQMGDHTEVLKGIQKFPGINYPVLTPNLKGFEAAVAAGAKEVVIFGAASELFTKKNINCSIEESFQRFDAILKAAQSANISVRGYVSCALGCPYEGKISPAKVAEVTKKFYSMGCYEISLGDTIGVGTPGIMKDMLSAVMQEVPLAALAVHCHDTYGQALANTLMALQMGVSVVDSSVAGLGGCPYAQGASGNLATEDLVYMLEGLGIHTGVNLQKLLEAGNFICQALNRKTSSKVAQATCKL
# UniProt O75146: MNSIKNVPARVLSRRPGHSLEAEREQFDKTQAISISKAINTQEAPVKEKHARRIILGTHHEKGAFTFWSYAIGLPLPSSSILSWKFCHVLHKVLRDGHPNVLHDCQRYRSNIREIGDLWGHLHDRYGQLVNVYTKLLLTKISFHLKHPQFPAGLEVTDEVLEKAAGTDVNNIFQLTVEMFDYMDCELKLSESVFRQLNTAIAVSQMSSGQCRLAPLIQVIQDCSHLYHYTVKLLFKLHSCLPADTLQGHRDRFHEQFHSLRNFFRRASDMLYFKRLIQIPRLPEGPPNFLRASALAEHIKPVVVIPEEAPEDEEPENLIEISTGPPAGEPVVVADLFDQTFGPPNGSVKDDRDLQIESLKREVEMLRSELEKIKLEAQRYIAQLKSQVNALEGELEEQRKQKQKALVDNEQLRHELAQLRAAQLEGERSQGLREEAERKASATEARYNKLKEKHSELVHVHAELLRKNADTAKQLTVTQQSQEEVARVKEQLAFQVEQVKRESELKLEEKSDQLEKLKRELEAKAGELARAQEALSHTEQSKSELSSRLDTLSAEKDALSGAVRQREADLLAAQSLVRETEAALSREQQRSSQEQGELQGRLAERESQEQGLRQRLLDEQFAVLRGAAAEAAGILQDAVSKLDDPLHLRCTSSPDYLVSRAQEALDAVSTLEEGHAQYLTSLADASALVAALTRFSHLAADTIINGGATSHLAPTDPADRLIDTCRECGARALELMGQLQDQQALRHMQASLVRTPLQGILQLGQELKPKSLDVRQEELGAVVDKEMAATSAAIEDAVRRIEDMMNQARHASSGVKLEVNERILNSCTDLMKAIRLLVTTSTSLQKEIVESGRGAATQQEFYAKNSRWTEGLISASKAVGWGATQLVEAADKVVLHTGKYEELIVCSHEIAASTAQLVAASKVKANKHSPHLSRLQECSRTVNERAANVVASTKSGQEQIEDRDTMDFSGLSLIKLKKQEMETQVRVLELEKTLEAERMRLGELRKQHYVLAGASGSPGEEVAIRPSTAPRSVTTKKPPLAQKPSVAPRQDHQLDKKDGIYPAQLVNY
# UniProt P54198: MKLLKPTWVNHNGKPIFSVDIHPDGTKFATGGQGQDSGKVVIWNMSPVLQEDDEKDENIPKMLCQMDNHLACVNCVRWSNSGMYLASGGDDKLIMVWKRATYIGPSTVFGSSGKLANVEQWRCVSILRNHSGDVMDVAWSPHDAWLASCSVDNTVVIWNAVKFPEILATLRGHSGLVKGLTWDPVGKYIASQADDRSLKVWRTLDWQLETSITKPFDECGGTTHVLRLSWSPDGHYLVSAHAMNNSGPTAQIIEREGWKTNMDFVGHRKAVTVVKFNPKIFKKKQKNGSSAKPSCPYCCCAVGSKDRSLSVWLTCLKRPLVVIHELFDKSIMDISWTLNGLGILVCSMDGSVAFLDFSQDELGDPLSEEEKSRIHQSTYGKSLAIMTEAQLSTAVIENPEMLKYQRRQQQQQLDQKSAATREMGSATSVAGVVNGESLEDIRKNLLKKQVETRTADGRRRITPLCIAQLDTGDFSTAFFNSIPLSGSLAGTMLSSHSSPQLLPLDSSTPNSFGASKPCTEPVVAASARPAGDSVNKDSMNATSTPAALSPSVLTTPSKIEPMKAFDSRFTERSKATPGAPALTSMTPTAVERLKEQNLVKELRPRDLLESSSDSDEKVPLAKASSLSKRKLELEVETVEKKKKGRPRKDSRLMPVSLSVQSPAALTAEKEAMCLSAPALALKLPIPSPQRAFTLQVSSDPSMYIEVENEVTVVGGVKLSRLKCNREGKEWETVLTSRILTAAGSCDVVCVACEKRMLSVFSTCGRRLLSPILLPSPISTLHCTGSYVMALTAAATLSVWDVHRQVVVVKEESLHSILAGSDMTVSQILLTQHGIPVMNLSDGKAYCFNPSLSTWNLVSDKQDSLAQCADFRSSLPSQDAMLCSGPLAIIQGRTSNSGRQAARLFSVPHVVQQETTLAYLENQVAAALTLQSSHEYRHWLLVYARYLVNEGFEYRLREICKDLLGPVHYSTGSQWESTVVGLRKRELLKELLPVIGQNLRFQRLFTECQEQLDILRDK
# UniProt O00291: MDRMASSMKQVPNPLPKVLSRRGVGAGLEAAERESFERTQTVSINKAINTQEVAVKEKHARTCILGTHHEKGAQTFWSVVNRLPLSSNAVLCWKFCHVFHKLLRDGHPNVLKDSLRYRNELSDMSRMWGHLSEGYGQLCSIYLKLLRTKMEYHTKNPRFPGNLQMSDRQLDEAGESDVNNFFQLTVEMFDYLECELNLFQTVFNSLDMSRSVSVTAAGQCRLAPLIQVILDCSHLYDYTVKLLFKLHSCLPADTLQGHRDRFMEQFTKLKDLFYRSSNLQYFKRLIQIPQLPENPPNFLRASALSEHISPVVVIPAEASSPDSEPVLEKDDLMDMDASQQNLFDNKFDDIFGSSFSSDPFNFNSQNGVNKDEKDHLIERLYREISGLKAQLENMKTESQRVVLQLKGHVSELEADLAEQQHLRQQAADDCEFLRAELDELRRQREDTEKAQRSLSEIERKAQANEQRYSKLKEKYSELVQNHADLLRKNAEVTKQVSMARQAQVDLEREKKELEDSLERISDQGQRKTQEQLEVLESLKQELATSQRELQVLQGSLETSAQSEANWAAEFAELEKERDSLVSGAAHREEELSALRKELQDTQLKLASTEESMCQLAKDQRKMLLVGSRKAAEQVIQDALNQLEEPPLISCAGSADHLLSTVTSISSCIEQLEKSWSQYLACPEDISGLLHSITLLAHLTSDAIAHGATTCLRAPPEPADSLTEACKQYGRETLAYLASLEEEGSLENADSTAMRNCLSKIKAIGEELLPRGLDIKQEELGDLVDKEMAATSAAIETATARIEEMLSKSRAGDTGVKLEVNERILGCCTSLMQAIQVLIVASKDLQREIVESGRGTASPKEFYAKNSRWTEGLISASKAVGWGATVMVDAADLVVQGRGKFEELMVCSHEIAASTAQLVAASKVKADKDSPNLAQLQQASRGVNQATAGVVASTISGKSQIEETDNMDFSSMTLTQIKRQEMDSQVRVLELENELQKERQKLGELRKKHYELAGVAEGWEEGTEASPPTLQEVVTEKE
# UniProt Q96FZ2: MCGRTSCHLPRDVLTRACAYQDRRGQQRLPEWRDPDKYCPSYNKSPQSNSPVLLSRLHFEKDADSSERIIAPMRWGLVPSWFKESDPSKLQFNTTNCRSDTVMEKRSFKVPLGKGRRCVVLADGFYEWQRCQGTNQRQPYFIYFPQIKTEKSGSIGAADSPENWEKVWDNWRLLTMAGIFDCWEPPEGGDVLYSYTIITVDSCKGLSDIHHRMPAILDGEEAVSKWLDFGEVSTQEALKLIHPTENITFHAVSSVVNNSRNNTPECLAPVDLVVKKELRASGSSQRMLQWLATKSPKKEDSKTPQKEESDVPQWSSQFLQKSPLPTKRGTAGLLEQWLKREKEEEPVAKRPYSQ
# UniProt Q7Z4H7: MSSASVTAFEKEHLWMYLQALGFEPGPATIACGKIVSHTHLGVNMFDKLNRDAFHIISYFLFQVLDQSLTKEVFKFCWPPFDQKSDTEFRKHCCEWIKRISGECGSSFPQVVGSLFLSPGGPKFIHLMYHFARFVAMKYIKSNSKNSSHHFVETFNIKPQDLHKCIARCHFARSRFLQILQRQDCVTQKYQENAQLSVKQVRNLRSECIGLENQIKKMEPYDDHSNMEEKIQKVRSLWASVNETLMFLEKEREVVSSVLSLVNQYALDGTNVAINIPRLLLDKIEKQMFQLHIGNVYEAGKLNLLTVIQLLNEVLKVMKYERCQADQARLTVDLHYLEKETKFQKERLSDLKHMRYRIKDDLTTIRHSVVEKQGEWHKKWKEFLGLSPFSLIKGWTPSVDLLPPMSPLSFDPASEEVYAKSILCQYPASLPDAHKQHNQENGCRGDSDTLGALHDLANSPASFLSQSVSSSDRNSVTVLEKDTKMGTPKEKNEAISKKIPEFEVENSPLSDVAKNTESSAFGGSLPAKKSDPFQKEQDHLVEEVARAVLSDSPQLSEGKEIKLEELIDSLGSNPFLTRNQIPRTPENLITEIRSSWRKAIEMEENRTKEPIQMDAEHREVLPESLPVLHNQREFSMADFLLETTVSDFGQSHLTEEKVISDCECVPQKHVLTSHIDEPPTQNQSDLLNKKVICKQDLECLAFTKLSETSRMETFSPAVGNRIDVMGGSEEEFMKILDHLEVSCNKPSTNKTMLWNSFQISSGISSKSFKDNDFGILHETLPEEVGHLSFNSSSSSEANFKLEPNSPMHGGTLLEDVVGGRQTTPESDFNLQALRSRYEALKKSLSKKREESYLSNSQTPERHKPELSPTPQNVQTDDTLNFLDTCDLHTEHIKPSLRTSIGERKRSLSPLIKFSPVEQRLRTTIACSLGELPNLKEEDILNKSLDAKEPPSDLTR
# UniProt P19367: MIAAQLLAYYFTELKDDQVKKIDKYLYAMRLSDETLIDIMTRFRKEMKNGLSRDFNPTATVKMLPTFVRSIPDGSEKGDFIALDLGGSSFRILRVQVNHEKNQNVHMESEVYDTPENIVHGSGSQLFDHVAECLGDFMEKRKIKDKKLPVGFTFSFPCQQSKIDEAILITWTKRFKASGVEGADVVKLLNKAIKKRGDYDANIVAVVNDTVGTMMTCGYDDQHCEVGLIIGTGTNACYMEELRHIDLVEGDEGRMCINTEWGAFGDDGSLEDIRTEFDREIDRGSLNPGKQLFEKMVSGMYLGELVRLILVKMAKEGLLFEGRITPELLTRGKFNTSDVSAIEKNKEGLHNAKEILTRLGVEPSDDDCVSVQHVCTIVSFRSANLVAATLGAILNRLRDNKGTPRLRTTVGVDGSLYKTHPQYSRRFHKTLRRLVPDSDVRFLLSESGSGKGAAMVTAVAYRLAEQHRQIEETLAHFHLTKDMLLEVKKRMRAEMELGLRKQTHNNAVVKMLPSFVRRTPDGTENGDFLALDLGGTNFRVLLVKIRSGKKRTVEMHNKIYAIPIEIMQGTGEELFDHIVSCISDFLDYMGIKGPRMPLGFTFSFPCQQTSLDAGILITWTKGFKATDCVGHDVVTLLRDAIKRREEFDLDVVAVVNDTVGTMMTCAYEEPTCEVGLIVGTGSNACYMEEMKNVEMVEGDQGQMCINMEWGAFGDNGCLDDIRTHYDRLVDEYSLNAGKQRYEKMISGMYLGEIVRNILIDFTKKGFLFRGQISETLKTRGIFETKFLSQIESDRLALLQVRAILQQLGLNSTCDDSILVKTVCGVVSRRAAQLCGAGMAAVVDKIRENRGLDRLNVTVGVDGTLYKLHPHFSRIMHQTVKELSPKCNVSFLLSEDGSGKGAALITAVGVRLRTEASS
# UniProt O00178: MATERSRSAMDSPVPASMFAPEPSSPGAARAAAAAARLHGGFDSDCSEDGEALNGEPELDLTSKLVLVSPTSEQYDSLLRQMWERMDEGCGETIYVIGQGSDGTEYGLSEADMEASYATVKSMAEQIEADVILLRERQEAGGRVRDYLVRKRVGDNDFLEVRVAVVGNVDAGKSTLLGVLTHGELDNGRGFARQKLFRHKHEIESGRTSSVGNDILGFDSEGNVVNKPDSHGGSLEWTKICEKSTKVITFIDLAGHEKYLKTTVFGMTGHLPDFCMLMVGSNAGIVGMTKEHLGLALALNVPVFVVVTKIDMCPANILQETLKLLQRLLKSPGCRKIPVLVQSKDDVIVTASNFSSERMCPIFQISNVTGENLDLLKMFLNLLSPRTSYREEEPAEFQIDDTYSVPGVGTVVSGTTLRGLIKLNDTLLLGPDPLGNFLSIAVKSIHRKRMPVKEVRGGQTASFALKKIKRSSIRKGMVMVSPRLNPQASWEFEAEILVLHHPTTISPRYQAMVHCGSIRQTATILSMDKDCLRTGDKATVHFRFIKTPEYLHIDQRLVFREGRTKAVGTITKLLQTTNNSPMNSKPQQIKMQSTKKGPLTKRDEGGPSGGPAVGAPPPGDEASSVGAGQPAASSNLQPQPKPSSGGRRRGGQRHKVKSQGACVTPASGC
# Compound: ClCC(=O)N[C@H]1CCCc2ccccc12
# Experiment: log2 mean competition ratio of IA-DTB cysteine labelling (DMSO/compound) (log2 ratio); higher = stronger cysteine engagement by compound
# Settings: 50 µM; treatment time: 4 h; cell line lysate: HEK293T
# Experimental: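 IA-DTB competitive cysteine chemoproteomics in HEK293T RIPA lysate. Lysates were treated with compound 29 or 30 at 50 or 200 µM for 4 h, then IA-DTB (500 µM, 1 h), trypsin-digested, NeutrAvidin-enriched and analysed by diaPASEF. Competition ratio = intensity DMSO / intensity compound (n=4 treated, n=64 DMSO); binding: mean log2 CR ≥ 1 and p ≤ 0.05 plus QC filters. Target is the cysteine site.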
row,Target,log2 mean competition ratio
1,HECTD1 C369 (UniProt Q9ULT8),0.00721
2,HDLBP C104,-0.0668
3,HMGCR C382 (UniProt P04035),-0.128
4,GUF1 C338 (UniProt Q8N442),0.0212
5,HMGCL C323 (UniProt P35914),0.0354
6,HIP1R C105 (UniProt O75146),0.144
7,HAUS8 C182 (UniProt Q9BT25),0.252
8,HECTD1 C1811 (UniProt Q9ULT8),-0.28
9,HDLBP C940,-0.0777
10,HNRNPA1 C175,-0.134
11,HIRA C1007 (UniProt P54198),-0.381
12,HIP1 C613 (UniProt O00291),-0.214
13,HNRNPU C607 (UniProt Q00839),0.477
14,HMCES C266 (UniProt Q96FZ2),-0.649
15,HEATR1 C631 (UniProt Q9H583),-0.336
16,HAUS6 C699 (UniProt Q7Z4H7),0.0511
17,HK1 C834 (UniProt P19367),-0.13
18,GXYLT1 C414 (UniProt Q4G148),0.0877
19,GTF3C5 C439 (UniProt Q9Y5Q8),-0.0836
20,GTPBP1 C313 (UniProt O00178),0.0526

# Same assay, conditions: 200 µM; treatment time: 4 h; cell line lysate: HEK293T
row,Target,log2 mean competition ratio
1,HECTD1 C369 (UniProt Q9ULT8),0.538
2,HDLBP C104,0.0184
3,HMGCR C382 (UniProt P04035),0.14
4,GUF1 C338 (UniProt Q8N442),-0.0963
5,HMGCL C323 (UniProt P35914),0.11
6,HIP1R C105 (UniProt O75146),0.0559
7,HAUS8 C182 (UniProt Q9BT25),0.113
8,HECTD1 C1811 (UniProt Q9ULT8),-0.293
9,HDLBP C940,0.228
10,HNRNPA1 C175,-0.167
11,HIRA C1007 (UniProt P54198),-0.159
12,HIP1 C613 (UniProt O00291),-0.135
13,HNRNPU C607 (UniProt Q00839),-0.227
14,HMCES C266 (UniProt Q96FZ2),-0.359
15,HEATR1 C631 (UniProt Q9H583),-0.219
16,HAUS6 C699 (UniProt Q7Z4H7),0.312
17,HK1 C834 (UniProt P19367),-0.192
18,GXYLT1 C414 (UniProt Q4G148),-0.269
19,GTF3C5 C439 (UniProt Q9Y5Q8),0.584
20,GTPBP1 C313 (UniProt O00178),-0.251

# From the supplement of paper PMC11732987, “Enantioselective OTUD7B fragment discovery through chemoproteomics screening and high-throughput optimisation” (Communications Chemistry, 2025)
